This is one part of the list. Further columns of the screen follow, without active or inactive calls. For part of these data: The list favours compounds with an active or inconclusive main result.
Tests used:
PubChem AID 1586 = conditions: yeast two-hybrid polyglutamine protein interaction, reporter readout; measured here: averaged growth delta OD
[1] = selective SMN2 exon splicing luciferase activators – cell-based, SMN2/SMN1 luciferase reporters (AID 1598); conditions: SMN2 vs SMN1 luciferase splicing reporter cells, at 10 µM; SMN1 luciferase ratio: measured here: SMN1 luciferase reporter average; SMN2 luciferase ratio: measured here: SMN2 luciferase reporter average, stronger effect = higher value
[2] = rescue of PC12 cells from polyQ htt toxicity – LDH release (AID 1610); conditions: PC12 mutant huntingtin toxicity, final LDH at 4 uM, stronger effect = lower value

## CCC(=O)O[C@H]1[C@H](O[C@@H]2[C@@H](C)[C@H](O[C@H]3C[C@@](C)(OC)[C@@H](O)[C@H](C)O3)[C@@H](C)C(=O)O[C@H](CC)[C@@](C)(O)[C@H](O)[C@@H](C)C(=O)[C@H](C)C[C@@]2(C)O)O[C@H](C)C[C@@H]1N(C)C
PubChem AID 1586
  signal change (36 h minus 0 h): 0.13
[1]
  SMN1 luciferase ratio: 0.81
  SMN2 luciferase ratio: 0.98
[2]
  normalised LDH release: 0.959

## CC(C[N+](C)(C)C)OC(N)=O (stereo not drawn)
PubChem AID 1586
  signal change (36 h minus 0 h): 0.194
[1]
  SMN1 luciferase ratio: 0.95
  SMN2 luciferase ratio: 1.02
[2]
  normalised LDH release: 0.929

## C[C@]12CCC(=O)C=C1CCC1C2[C@@H](O)C[C@@]2(C)C1CC[C@]2(O)C(=O)CO (stereo partly drawn)
PubChem AID 1586
  signal change (36 h minus 0 h): 0.121
[1]
  SMN1 luciferase ratio: 0.88
  SMN2 luciferase ratio: 0.81
[2]
  normalised LDH release: 0.808

## O=C(O)c1cc(=O)c2ccccc2o1
PubChem AID 1586
  signal change (36 h minus 0 h): 0.133
[1]
  SMN1 luciferase ratio: 0.85
  SMN2 luciferase ratio: 0.79
[2]
  normalised LDH release: 0.793

## O=C1c2cccc(O)c2C(=O)c2c(O)cccc21
PubChem AID 1586
  signal change (36 h minus 0 h): 0.0722
[1]
  SMN1 luciferase ratio: 0.92
  SMN2 luciferase ratio: 0.84
[2]
  normalised LDH release: 1.32

## CC(=O)OCC1=C(C(=O)O)N2C(=O)[C@@H](NC(=O)CSc3ccncc3)[C@H]2SC1
PubChem AID 1586
  signal change (36 h minus 0 h): 0.0848
[1]
  SMN1 luciferase ratio: 0.85
  SMN2 luciferase ratio: 0.81
[2]
  normalised LDH release: 0.987

## CSc1ccc2c(c1)N(CCC1CCCCN1C)c1ccccc1S2 (stereo not drawn)
PubChem AID 1586
  signal change (36 h minus 0 h): 0.0977
[1]
  SMN1 luciferase ratio: 0.8
  SMN2 luciferase ratio: 0.98
[2]
  normalised LDH release: 0.997

## Clc1ccc(C(c2ccccc2Cl)C(Cl)Cl)cc1 (stereo not drawn)
PubChem AID 1586
  signal change (36 h minus 0 h): 0.395
[1]
  SMN1 luciferase ratio: 0.96
  SMN2 luciferase ratio: 0.92
[2]
  normalised LDH release: 0.751

## Cc1ccc(Cl)c(Nc2ccccc2C(=O)O)c1Cl
PubChem AID 1586
  signal change (36 h minus 0 h): 0.0767
[1]
  SMN1 luciferase ratio: 0.89
  SMN2 luciferase ratio: 0.9
[2]
  normalised LDH release: 1.13

## O=C(O)c1c2ccccc2cc2ccccc12
PubChem AID 1586
  signal change (36 h minus 0 h): 0.143
[1]
  SMN1 luciferase ratio: 0.9
  SMN2 luciferase ratio: 0.93
[2]
  normalised LDH release: 0.637

## COc1cc(NS(=O)(=O)c2ccc(N)cc2)ncn1
PubChem AID 1586
  signal change (36 h minus 0 h): 0.27
[1]
  SMN1 luciferase ratio: 0.92
  SMN2 luciferase ratio: 0.91
[2]
  normalised LDH release: 0.914

## NC[C@H]1O[C@H](O[C@H]2C(O[C@@H]3O[C@H](CO)[C@@H](O)[C@H]3O)[C@@H](O)[C@H](N)C[C@@H]2N)[C@H](N)[C@@H](O)[C@@H]1O (stereo partly drawn)
PubChem AID 1586
  signal change (36 h minus 0 h): 0.036
[1]
  SMN1 luciferase ratio: 0.92
  SMN2 luciferase ratio: 0.84
[2]
  normalised LDH release: 1.26
